Our source for the binding values is PMC11599752.

Amino acid sequences for entries named in this document (tags omitted).
UniProt P35637: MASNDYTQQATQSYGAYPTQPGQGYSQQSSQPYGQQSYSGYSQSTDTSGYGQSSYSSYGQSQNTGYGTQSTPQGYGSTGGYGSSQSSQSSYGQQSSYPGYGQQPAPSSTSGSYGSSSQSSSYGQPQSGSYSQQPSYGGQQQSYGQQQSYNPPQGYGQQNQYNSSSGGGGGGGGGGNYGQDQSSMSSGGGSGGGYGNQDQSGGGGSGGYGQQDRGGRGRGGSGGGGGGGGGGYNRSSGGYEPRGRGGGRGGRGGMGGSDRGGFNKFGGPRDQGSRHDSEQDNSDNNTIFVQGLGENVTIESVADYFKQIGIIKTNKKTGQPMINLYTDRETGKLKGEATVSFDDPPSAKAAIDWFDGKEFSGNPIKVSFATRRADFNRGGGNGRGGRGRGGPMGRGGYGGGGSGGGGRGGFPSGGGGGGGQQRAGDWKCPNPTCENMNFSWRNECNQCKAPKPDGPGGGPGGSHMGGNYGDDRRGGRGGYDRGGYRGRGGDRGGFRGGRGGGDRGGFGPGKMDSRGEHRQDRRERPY
UniProt P12956: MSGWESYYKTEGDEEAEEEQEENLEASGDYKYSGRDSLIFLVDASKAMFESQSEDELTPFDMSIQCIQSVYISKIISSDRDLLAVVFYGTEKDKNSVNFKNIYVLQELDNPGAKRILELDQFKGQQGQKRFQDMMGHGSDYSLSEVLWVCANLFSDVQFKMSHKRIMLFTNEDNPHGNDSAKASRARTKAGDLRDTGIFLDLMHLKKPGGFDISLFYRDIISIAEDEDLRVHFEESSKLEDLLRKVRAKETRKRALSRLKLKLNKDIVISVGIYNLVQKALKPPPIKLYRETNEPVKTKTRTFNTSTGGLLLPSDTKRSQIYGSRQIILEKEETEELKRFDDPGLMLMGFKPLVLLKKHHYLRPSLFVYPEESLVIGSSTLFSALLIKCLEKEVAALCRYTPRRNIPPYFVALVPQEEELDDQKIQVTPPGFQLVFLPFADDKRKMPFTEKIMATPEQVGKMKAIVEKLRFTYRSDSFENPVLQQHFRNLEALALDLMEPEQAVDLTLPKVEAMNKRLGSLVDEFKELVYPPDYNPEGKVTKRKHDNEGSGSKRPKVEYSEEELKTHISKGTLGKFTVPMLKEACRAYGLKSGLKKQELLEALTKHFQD

Read-outs that look alike come from different tables or passages of the source. Results are given in words; binding and its absence hold for the method and conditions named. Binding seen in cells or lysates may run through a third protein. Some entries that bind do so weakly or less than the wild type.

Experiment [1] has as its target T1, SFPQ (human (endogenous in TREx-BCBL1-RTA)) (UniProt P23246).
T1 sequence: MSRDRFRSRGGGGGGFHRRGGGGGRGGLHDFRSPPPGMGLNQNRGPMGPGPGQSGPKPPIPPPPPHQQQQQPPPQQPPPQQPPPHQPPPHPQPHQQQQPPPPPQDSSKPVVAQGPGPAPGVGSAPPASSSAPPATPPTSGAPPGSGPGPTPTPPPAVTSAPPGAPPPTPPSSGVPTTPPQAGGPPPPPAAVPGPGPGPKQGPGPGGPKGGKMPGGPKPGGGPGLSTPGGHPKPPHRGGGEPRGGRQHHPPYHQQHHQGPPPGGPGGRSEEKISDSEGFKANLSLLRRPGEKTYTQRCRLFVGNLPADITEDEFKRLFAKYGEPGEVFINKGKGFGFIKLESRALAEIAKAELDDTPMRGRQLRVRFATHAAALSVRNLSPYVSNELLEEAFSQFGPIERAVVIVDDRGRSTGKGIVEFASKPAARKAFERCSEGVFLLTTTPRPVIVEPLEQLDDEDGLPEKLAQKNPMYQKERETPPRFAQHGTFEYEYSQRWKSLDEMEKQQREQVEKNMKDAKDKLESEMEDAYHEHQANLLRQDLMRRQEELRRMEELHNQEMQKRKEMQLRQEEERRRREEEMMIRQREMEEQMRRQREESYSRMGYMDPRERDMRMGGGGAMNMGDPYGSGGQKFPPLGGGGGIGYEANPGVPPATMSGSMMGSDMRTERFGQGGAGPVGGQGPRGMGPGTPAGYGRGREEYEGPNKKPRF
Description: co-IP.

Experiment [2] concerns the target T1, SFPQ (human (endogenous in TREx-BCBL1-RTA)). Nature of the experiment: co-IP. The source holds these as a separate data set.

Regarding FUS (from UniProt P35637 1-526), the binding result in experiment [1] is “binds”.

As for Ku70 (from UniProt P12956 1-609), the binding result in experiment [1] is “binds”.

B1: PSPC1 (protein, UniProt Q8WXF1 1-523)
chain: MMLRGNLKQVRIEKNPARLRALESAVGESEPAAAAAMALALAGEPAPPAPAPPEDHPDEEMGFTIDIKSFLKPGEKTYTQRCRLFVGNLPTDITEEDFKRLFERYGEPSEVFINRDRGFGFIRLESRTLAEIAKAELDGTILKSRPLRIRFATHGAALTVKNLSPVVSNELLEQAFSQFGPVEKAVVVVDDRGRATGKGFVEFAAKPPARKALERCGDGAFLLTTTPRPVIVEPMEQFDDEDGLPEKLMQKTQQYHKEREQPPRFAQPGTFEFEYASRWKALDEMEKQQREQVDRNIREAKEKLEAEMEAARHEHQLMLMRQDLMRRQEELRRLEELRNQELQKRKQIQLRHEEEHRRREEEMIRHREQEELRRQQEGFKPNYMENREQEMRMGDMGPRGAINMGDAFSPAPAGNQGPPPMMGMNMNNRATIPGPPMGPGPAMGPEGAANMGTPMMPDNGAVHNDRFPQGPPSQMGSPMGSRTGSETPQAPMSGVGPVSGGPGGFGRGSQGGNFEGPNKRRRY
As for B1, the binding result in experiment [2] is listed as “binds”.
